For one molecule, binding results are on record in PMC5908803, “Cryo-EM structure of the RC-LH core complex from an early branching photosynthetic prokaryote” (Nature Communications, 2018).

The target of this assay is reaction center L subunit of Roseiflexus castenholzii (Roseiflexus castenholzii). Description: cryo-EM structure; single-particle cryo-EM of the rcRC-LH complex purified whole from native membranes, 3 mg/mL in 0.02% DDM, 150 mM NaCl, 50 mM Tris-HCl pH 8.0; 4.1 Å (subunit X helix seen after low-pass filter to 6 Å); both purified.

Results are given in words; binding and its absence hold for the method and conditions named. Binding can be weak; no strength is given.

B1: tetra-heme cytochrome c subunit of the reaction center of Roseiflexus castenholzii (protein, UniProt Q83XC9 4-320)
chain: QPPTLFPEITNTVRGRFYIVAGIISVVMAVASIAIFWWIFYTITPAPAPPLQNPIYVNYTQEPTDYISAESLAAMNAYIQANPQPQAVQVLKGMTTAQISAYMVAQVSGGLKVDCSYCHNIANFAQQDGYPNAAKKVTARKMMLMSADLNQNYTAKLPASVGGYQITCATCHNGKAAGLEPYPIEIMNTLPNDWRLPLELDYPGGLVVTGRKDVSNHEVEQNQFAMYHMNVSMGQGCTFCHNARYFPSYEIAQKNHSIIMLQMTKHIQETYVAPGGRIADGIMAGKSPSCWLCHQGANIPPGAAKPGQVPAVLSSTP
Regarding B1, the binding result is listed as “binds”.
